Structures can show the parent of a compound that is named as a salt. Where two headings read alike, the source gives them in different places. The whole screen tested about 3,300 compounds, of which about 95 (3%) showed an effect of 50% or more. This is one part of the list.
System: HCoV-229E
Parameters: species or system Huh-7; HTS, protection from HCoV-229E induced cell death, luminescent cell viability (CellCounting-Lite 2.0), inhibition rate

## C[C@]12CCC(=O)C=C1CC[C@@H]1[C@@H]2[C@@H](O)C[C@]2(C)C(=O)CC[C@@H]12 [11-Beta-hydroxyandrostenedione]
24 h, 10 µM; inhibitor
  229E Inhibition rate: 25.4%

## CC(=O)OC[C@]12[C@H](OC(C)=O)[C@H](OC(C)=O)[C@@H]3[C@@H](OC(C)=O)[C@@]14O[C@@]3(C)COC(=O)c1cccnc1CCC(C)C(=O)O[C@@H]([C@H](OC(=O)c1ccccc1)[C@@H]2OC(C)=O)[C@]4(C)O (some centres unmarked) [Wilforine]
24 h, 10 µM; inhibitor
  229E Inhibition rate: 24.1%

## COC1=CC(=O)O[C@@H](CCc2ccc3c(c2)OCO3)C1 [Dihydromethysticin]
24 h, 10 µM; inhibitor
  229E Inhibition rate: 0%

## CO[C@@H]1C[C@@H](C[C@H]2CC[C@H](C)[C@H]([C@@H](C)C(=O)O)O2)O[C@]2(O[C@](C)([C@H]3CC[C@@](C)([C@@H]4O[C@@H]([C@H]5O[C@@](O)(CO)[C@H](C)C[C@@H]5C)C[C@@H]4C)O3)C[C@H]2C)[C@@H]1C [Nigericin (sodium salt)]
24 h, 10 µM; inhibitor
  229E Inhibition rate: 0%

## O=c1cc(O)c2ccccc2o1 [4-Hydroxycoumarin]
24 h, 10 µM; inhibitor
  229E Inhibition rate: 6.9%

## NC(=O)c1cn([C@@H]2O[C@H](CO)[C@@H](O)[C@H]2O)c2ncnc(N)c12 [Sangivamycin]
24 h, 10 µM; inhibitor
  229E Inhibition rate: 8.8%

## C[C@]12CC[C@H]3[C@@H](CC[C@@H]4C[C@@H](O)CC[C@@]43CO)[C@@]1(O)CC[C@@H]2c1ccc(=O)oc1 [19-Hydroxybufalin]
24 h, 10 µM; inhibitor
  229E Inhibition rate: 43.5%

## C=CCc1cc(OC)c2c(c1)OCO2 [Myristicin]
24 h, 10 µM; inhibitor
  229E Inhibition rate: 7.2%

## CC[C@@]1(O)C(=O)OCc2c1cc1n(c2=O)Cc2cc3c(N)cccc3nc2-1 [9-amino-CPT]
24 h post infection, 1 h compound pre-incubation; 10 µM; inhibitor
  229E Inhibition rate: 13.2%

## C=C1CC[C@H]2[C@@H](/C=C(\C)C(=O)[C@@]3(O)C[C@H](C)[C@H](O)[C@@H]3[C@@H]1O)C2(C)C [Lathyrol]
24 h, 10 µM; inhibitor
  229E Inhibition rate: 9.6%

## COC[C@]12CN(C)C3[C@@H]4[C@H](OC)[C@H]1[C@@]3([C@@H](OC)C[C@H]2O)[C@]1(O)C[C@@]2(O)[C@H](OC(=O)c3ccccc3)[C@@H]1[C@]4(OC(C)=O)[C@@H](O)[C@@H]2OC [Beiwutine]
24 h, 10 µM; inhibitor
  229E Inhibition rate: 5.9%

## C[C@]12CC[C@H](O)C[C@@]1(O)CC[C@@H]1[C@@H]2CC[C@]2(C)[C@@H](c3ccc(=O)oc3)[C@@H](O)[C@H]3O[C@]132 [Desacetylcinobufotalin]
24 h, 10 µM; inhibitor
  229E Inhibition rate: 0%

## C[C@]12CC[C@H](O)C[C@@H]1CC[C@@H]1[C@@H]2CC[C@]2(C)C(=O)CC[C@@H]12 [Epiandrosterone]
24 h, 10 µM; inhibitor
  229E Inhibition rate: 29.3%

## C[C@H]1CC[C@H]2[C@H](C)[C@@H]3CC[C@@H]4[C@@H](C[C@H]5[C@H]4C[C@@H](O)[C@H]4C[C@@H](O)CC[C@@]45C)[C@@H]3CN2C1 [Hupehenine]
24 h, 10 µM; inhibitor
  229E Inhibition rate: 40.3%

## CC(=O)C(=O)c1ccccc1 [1-Phenylpropane-1,2-dione]
24 h, 10 µM; inhibitor
  229E Inhibition rate: 9.1%

## COc1cc(CCN)ccc1O [3-Methoxytyramine (hydrochloride)]
24 h, 10 µM, inhibitor
  229E Inhibition rate: 34.1%

## C[C@]12CC[C@@H](O)C[C@@H]1CC[C@@H]1[C@@H]2[C@@H](O)C[C@]2(C)C(=O)CC[C@@H]12 [11β-Hydroxyandrosterone]
24 h, 10 µM; inhibitor
  229E Inhibition rate: 12.4%

## CC(=O)O[C@H]1[C@H]2O[C@]23[C@@H]2CC[C@@H]4C[C@@H](O)CC[C@]4(C)[C@H]2CC[C@]3(C)[C@H]1c1ccc(=O)oc1 [Cinobufagin]
24 h, 10 µM; inhibitor
  229E Inhibition rate: 44.9

## CCN1C[C@]2(COC)[C@H](O)C[C@H](OC)[C@]34C1[C@H]([C@H](OC)[C@H]23)[C@@]1(OC(C)=O)C[C@H](OC)[C@@]2(O)C[C@@H]4[C@@H]1[C@H]2OC(=O)c1ccc(OC)cc1 [Yunaconitine]
24 h, 10 µM; inhibitor
  229E Inhibition rate: 11.5%

## C=C(C)[C@@H]1[C@H]2OC(=O)[C@@H]1[C@]1(O)C[C@H]3O[C@]34C(=O)O[C@H]2[C@]14C [Picrotoxinin]
24 h, 10 µM; inhibitor
  229E Inhibition rate: 0

## COCc1c(CO)cnc(C)c1O [4'-O-Methylpyridoxine]
24 h, 10 µM; inhibitor
  229E Inhibition rate: 9%

## CCN1C[C@@]2(COC)[C@H]3[C@@H](OC)[C@H]4[C@@H]1[C@]3([C@@H](OC)C[C@H]2OC(C)=O)[C@@H]1C[C@@]2(O)[C@H](OC(=O)c3ccccc3)[C@@H]1[C@]4(OC(C)=O)[C@@H](O)[C@@H]2OC [Flaconitine]
24 h, 10 µM; inhibitor
  229E Inhibition rate: 16.9%

## O=C(O)COc1ccccc1 [Phenoxyacetic acid]
24 h, 10 µM; inhibitor
  229E Inhibition rate: 11.2%

## C=C[C@@]12CN(C)[C@H]3C[C@]14C(=Nc1ccccc14)[C@@H]1C[C@@H]2[C@@H]3CO1 [Koumine]
24 h, 10 µM; inhibitor
  229E Inhibition rate: 31.1%

## CC(C)C[C@H](NP(=O)(O)O[C@@H]1O[C@@H](C)[C@H](O)[C@@H](O)[C@H]1O)C(=O)N[C@@H](Cc1c[nH]c2ccccc12)C(=O)O [Phosphoramidon (Disodium)]
24 h, 10 µM; inhibitor
  229E Inhibition rate: 13%

## C[C@@H](NC(=O)[C@@H](N)Cc1ccc(O)cc1)C(=O)N[C@@H](Cc1ccccc1)C(=O)NCC(=O)N[C@@H](Cc1ccc(O)cc1)C(=O)N1CCC[C@H]1C(=O)N[C@@H](CO)C(N)=O [Dermorphin]
24 h, 10 µM; inhibitor
  229E Inhibition rate: 14.3

## CCN(CC)N=O [N-Nitrosodiethylamine]
24 h, 10 µM; inhibitor
  229E Inhibition rate: 12.9%

## COc1cc2c3c(c1OC)-c1ccccc1C[C@H]3[N+](C)(C)CC2 [N-Methylnuciferine]
24 h, 10 µM; inhibitor
  229E Inhibition rate: 9.7%

## C=C1[C@@H]2CC[C@H]3[C@]4(C)C[C@H](O[C@H]5O[C@H](CO)[C@@H](OS(=O)(=O)O)[C@H](OS(=O)(=O)O)[C@H]5OC(=O)CC(C)C)C[C@@H](C(=O)O)[C@H]4CC[C@]3(C2)[C@H]1O [Atractyloside (potassium salt)]
24 h, 10 µM; inhibitor
  229E Inhibition rate: 24.3%

## CC(C)=CCC[C@](C)(O)[C@H]1CC[C@]2(C)[C@@H]1[C@H](O)C[C@@H]1[C@@]3(C)CC[C@H](O)C(C)(C)[C@@H]3[C@@H](O[C@@H]3O[C@H](CO)[C@@H](O)[C@H](O)[C@H]3O)C[C@]12C [Ginsenoside Rh1]
24 h, 10 µM; inhibitor
  229E Inhibition rate: 24.5%

## COc1ccc(C(=O)O[C@H]2CC[C@@]3(C)[C@@H]4CC[C@H]5[C@]6(O)C[C@H](O)[C@@]7(O)[C@@H](CN8C[C@@H](C)CC[C@H]8[C@@]7(C)O)[C@]6(O)C[C@@]53O[C@]24O)cc1OC [Veratridine]
24 h, 10 µM; inhibitor
  229E Inhibition rate: 30.2%

## COc1ccc(C=O)cc1O [Isovanillin]
24 h, 10 µM; inhibitor
  229E Inhibition rate: 0%

## CC(=O)/C=C/c1ccccc1 [trans-Benzylideneacetone]
24 h, 10 µM, inhibitor
  229E Inhibition rate: 21.8%

## O=c1cccc2n1CC1CC2CN2CCCCC12 (centres unmarked) [Thermopsine]
24 h, 10 µM; inhibitor
  229E Inhibition rate: 23.6%

## C/C=C(\C)C(=O)N[C@@H](c1ccccc1)[C@@H](O)C(=O)O[C@H]1C[C@@]2(O)[C@@H](OC(=O)c3ccccc3)[C@@H]3[C@]4(OC(C)=O)CO[C@@H]4C[C@H](O)[C@@]3(C)C(=O)[C@H](OC(C)=O)C(=C1C)C2(C)C [Cephalomannine]
24 h, 10 µM; inhibitor
  229E Inhibition rate: 17.2%

## CN(C)NC(=O)CCC(=O)O [Daminozide]
24 h, 10 µM; inhibitor
  229E Inhibition rate: 12.3%

## C[C@H]1O[C@@H](O[C@H]2CC[C@@]3(C)[C@H](CC[C@@H]4[C@@H]3C[C@@H](O)[C@]3(C)[C@@H](C5=CC(=O)OC5)CC[C@]43O)C2)C[C@H](O)[C@@H]1O[C@H]1C[C@H](O)[C@H](O[C@H]2C[C@H](O)[C@H](O[C@@H]3O[C@H](CO)[C@@H](O)[C@H](O)[C@H]3O)[C@@H](C)O2)[C@@H](C)O1 [Deslanoside]
24 h, 10 µM; inhibitor
  229E Inhibition rate: 55.1

## C=CCSC [Allyl methyl sulfide]
24 h, 10 µM; inhibitor
  229E Inhibition rate: 15.5

## CC1(C)O[C@@H]1COc1c2occc2cc2ccc(=O)oc12 [Heraclenin]
24 h, 10 µM; inhibitor
  229E Inhibition rate: 49.2%

## O=C(/C=C/c1ccc(O)c(O)c1)OC1[C@H](O)CC(OC(=O)/C=C/c2ccc(O)c(O)c2)(C(=O)O)C[C@H]1O (some centres unmarked) [1,4-Dicaffeoylquinic acid]
24 h, 10 µM; inhibitor
  229E Inhibition rate: 0%

## OCC(Cl)(Cl)Cl [2,2,2-Trichloroethanol]
24 h, 10 µM; inhibitor
  229E Inhibition rate: 10.2%

## CC(C)=CC[C@@H](OC(=O)CC(C)(C)O)C1=CC(=O)c2c(O)ccc(O)c2C1=O [β-Hydroxyisovalerylshikonin]
24 h, 10 µM; inhibitor
  229E Inhibition rate: 7.4%

## CN1CC[C@]23C(=O)C[C@H]4C(=CCO[C@H]5CC(=O)N(c6c(O)cccc62)[C@H]3[C@H]54)C1 [Vomicine]
24 h, 10 µM; inhibitor
  229E Inhibition rate: 11.7%

## CC(C(=O)O)C(=O)O [Methylmalonic acid]
24 h, 10 µM; inhibitor
  229E Inhibition rate: 15.2

## O=C(O)c1ccc(=O)[nH]c1 [6-Hydroxynicotinic acid]
24 h, 10 µM; inhibitor
  229E Inhibition rate: 13.6%

## c1ccc2c(c1)ccc1c3ccccc3ccc21 [Chrysene]
24 h, 10 µM; inhibitor
  229E Inhibition rate: 7

## CCc1ccc(O)c2cc3c(nc12)-c1cc2c(c(=O)n1C3)COC(=O)[C@]2(O)CC [12-Ethyl-9-hydroxycamptothecin]
24 h, 10 µM; inhibitor
  229E Inhibition rate: 3.6%

## COC1=C[C@]23CCCN2CCc2cc4c(cc2[C@@H]3[C@@H]1O)OCO4 [Cephalotaxine]
24 h, 10 µM; inhibitor
  229E Inhibition rate: 17.3%

## C[C@@H]1C(=O)O[C@H]2[C@H](O)[C@@]34O[C@@H]5OC(=O)[C@H](O)[C@@]56[C@H](C(C)(C)C)[C@H](O)C(OC3=O)[C@]64[C@@]12O (some centres unmarked) [Ginkgolide C]
24 h, 10 µM; inhibitor
  229E Inhibition rate: 18.8%

## CCCCCCCCC(=O)NCc1ccc(O)c(OC)c1 [Nonivamide]
24 h, 10 µM; inhibitor
  229E Inhibition rate: 37.1

## COc1cc2occc2c2oc(=O)ccc12 [Isobergapten]
24 h, 10 µM; inhibitor
  229E Inhibition rate: 15.7%

## C/C=C(\C)C(=O)O[C@@H]1C[C@H](O)[C@]23CO[C@H](C(=O)OC)[C@H]2[C@](C)([C@]24O[C@@]2(C)[C@H]2C[C@@H]4O[C@@H]4OC=C[C@@]42O)[C@H](O)[C@@H]2OC[C@@]1(C(=O)OC)[C@H]23 [Azadirachtin B]
24 h, 10 µM; inhibitor
  229E Inhibition rate: 25%

## Cc1c([C@H](C)[C@@H]2NC[C@@H](C)C[C@H]2O)ccc2c1C[C@H]1[C@H]2CC=C2C[C@@H](O[C@@H]3O[C@H](CO)[C@@H](O)[C@H](O)[C@H]3O)CC[C@@]21C [Veratrosine]
24 h, 10 µM; inhibitor
  229E Inhibition rate: 0%
